The source of these data is the supplement of paper PMC10735217.

Each structure is given as a SMILES string. Some of the results follow. This data set is noisy: repeats of one test often differ as much as different tests do.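 Human kidney-derived cells stably carry a construct in which eight TEAD-binding elements drive luciferase, measured by luminescence in a drug-repurposing library screen. A hit is any compound whose signal exceeds the plate mean by more than five robust Z scores.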

The test system of the assay is HEK293A TEAD-LUC reporter. Put plainly: TEAD-luciferase reporter activity (YAP activation), robust Z score vs plate; higher = stronger YAP/TEAD activation. The note with it: 24 h.

With `CC(OC(=O)OC1CCCCC1)OC(=O)C1=C(CSc2nnnn2CCN(C)C)CS[C@@H]2[C@H](NC(=O)Cc3csc(N)n3)C(=O)N12` (stereo partly drawn), the TEAD-luciferase reporter activity reads like this: (compound concentration: 200 nM) inactive: -1.99; (compound concentration: 2 uM) inactive: 0.153; (compound concentration: 10 uM) inactive: -1.22.
The corresponding values for `CC(=O)O[C@H]1CC[C@@]2(C)C(=CC[C@@H]3[C@@H]2CC[C@]2(C)C(c4cccnc4)=CC[C@@H]32)C1` [abiraterone acetate] are inactive: 2.42, inactive: 1.47 and inactive: -0.507.
The corresponding values for `COc1ccccc1N1CCN(CC2CN=C3c4ccccc4N=C(SC)N32)CC1` (stereo not drawn) are inactive: -2.13, inactive: 0.669 and active: 7.15.
The corresponding values for `Cc1cc(NC(=O)c2ccc(C)c(C)c2)no1` are active: 9.08, inactive: -0.395 and inactive: -0.267.
On to `Cc1cc(C)c(Nc2ccnc(Nc3ccc(C#N)cc3)n2)c(C)c1` [dapivirine], for which the TEAD-luciferase reporter activity reads like this: (compound concentration: 200 nM) inactive: -0.749; (compound concentration: 2 uM) inactive: -1.23; (compound concentration: 10 uM) inactive: -0.211.
The corresponding values for `CCCCCCCCCc1ccc(OCCOCCOCCOCCOCCOCCOCCOCCOCCO)cc1` [Nonoxinol 9] are inactive: -0.759, inactive: -1.19 and inactive: -0.295.
For `CCCCCCCC(=O)c1ccc(O)c(C(=O)O)c1` [beta-Lipohydroxy acid], in that order: inactive: -2.2, inactive: 1.65 and inactive: 0.325.
For `Cc1c(NCCN2CCCC2)cc(C(=O)C(C)(C)C)cc1N1CCN(c2ncnc3[nH]nc(Br)c23)CC1`, in that order: inactive: -1.24, inactive: -0.916 and inactive: -1.85.
As for `Oc1cc2c(cc1O)C(Cc1cccc3ccccc13)NCC2` (stereo not drawn), the TEAD-luciferase reporter activity reads like this: (compound concentration: 200 nM) inactive: -0.95; (compound concentration: 2 uM) inactive: -1.06; (compound concentration: 10 uM) inactive: -1.52.
For `CC(C)Oc1cccc(-n2c(CCc3c[nH]c4ccc(Br)cc34)nc3ccccc3c2=O)c1`, the TEAD-luciferase reporter activity reads like this: (compound concentration: 200 nM) inactive: -0.607; (compound concentration: 2 uM) inactive: -1.22; (compound concentration: 10 uM) inactive: -1.53.
For `CCNCCS(=O)(=O)NC[C@]1(c2ccccc2)SC(NC(=O)C(C)(C)C)=NN1C(=O)C(C)(C)C` [litronesib], in that order: inactive: -0.539, inactive: -1.6 and inactive: -0.892.
As for `NC(=O)CCC(N)C(=O)O` [L-glutamine, BioKier], the TEAD-luciferase reporter activity is, setting by setting: (compound concentration: 200 nM) inactive: -1.07; (compound concentration: 10 uM) inactive: -0.228.
In the case of `CS(=O)(=O)NC(=O)CCC/C=C\C[C@H]1C(=O)C[C@@H](O)[C@@H]1/C=C/[C@@H](O)COc1ccccc1` [sulprostone], the TEAD-luciferase reporter activity (compound concentration: 2 uM) is inactive: 1.44.
For `CS(=O)(=O)NC(=O)CCC/C=C\C[C@H]1C(=O)C[C@@H](O)[C@@H]1/C=C/[C@@H](O)COc1ccccc1` [Sulprostone], the TEAD-luciferase reporter activity runs as follows: (compound concentration: 200 nM) inactive: 0.349; (compound concentration: 10 uM) inactive: -0.97.
On to `COCCn1c2c([n+](Cc3cnccn3)c1C)C(=O)c1ccccc1C2=O` [Sepantronium bromide], for which the TEAD-luciferase reporter activity by setting is: (compound concentration: 200 nM) inactive: -2.01; (compound concentration: 2 uM) inactive: -2.51; (compound concentration: 10 uM) inactive: -3.96.
For `CNCCOC(c1ccccc1)c1ccccc1C` (stereo not drawn), in that order: inactive: 0.534, inactive: -0.275 and inactive: 1.25.
In the case of `CCOCCN(Cc1ccc(Oc2ccc([N+](=O)[O-])cc2)cc1)C(=O)C(Cl)Cl`, the TEAD-luciferase reporter activity (compound concentration: 200 nM) was inactive: -1.05, the TEAD-luciferase reporter activity (compound concentration: 2 uM) is inactive: -0.779 and the TEAD-luciferase reporter activity (compound concentration: 10 uM) was active: 5.09.
In the case of `O=C(Cc1ccccc1)NC1CCN(c2ccc3ncc(-c4cccc(C(F)(F)F)c4)n3n2)CC1`, the TEAD-luciferase reporter activity is, setting by setting: (compound concentration: 200 nM) inactive: 0.612; (compound concentration: 10 uM) inactive: -0.0118.
As for `Nc1ccn([C@H]2CO[C@@H](CO)S2)c(=O)n1` [Pharmaprojects No. 4701], the TEAD-luciferase reporter activity (compound concentration: 200 nM) is inactive: 1.31, the TEAD-luciferase reporter activity (compound concentration: 2 uM) is inactive: -0.807 and the TEAD-luciferase reporter activity (compound concentration: 10 uM) is inactive: -0.0257.
For `NC(=O)N1C(=O)C(=C(O)c2cccs2)c2cc(Cl)ccc21` [Tenidap sodium], in that order: inactive: 0.658, inactive: -1.17 and inactive: 0.489.
For `Cc1cn2nc([C@@H]3CCCCN3C(=O)c3cc(Cl)ccc3NS(C)(=O)=O)cc2nc1N1CC[C@H](N)C1` [Presatovir], in that order: inactive: -0.0585, inactive: -1.53 and inactive: 1.55.
For `CCN(CC)CCNc1ccc(CO)c2sc3ccccc3c(=O)c12`, in that order: inactive: 0.553, inactive: -2.68 and inactive: -0.148.
In the case of `CCO[C@H]1O[C@H]([C@@H](CNC(=O)N(C)N=O)OC)[C@H](OC)[C@H]1O`, the TEAD-luciferase reporter activity reads like this: (compound concentration: 200 nM) inactive: -0.496; (compound concentration: 2 uM) inactive: -0.575; (compound concentration: 10 uM) inactive: -0.941.
The corresponding values for `CC(C)(Oc1ccc(Cl)cc1)C(=O)N1CSCC1C(=O)O` (stereo not drawn) [Timofibrate] are inactive: -1.78, inactive: 0.858 and inactive: 2.81.
The corresponding values for `N=C(N)NCCCCC(=O)NCC(=O)NC(CC(=O)O)c1cccnc1` (stereo not drawn) are inactive: -1.78, inactive: -0.502 and inactive: -1.49.
In the case of `CCN(CC)CCNC(=O)c1cc(Cl)c(N)cc1OC`, the TEAD-luciferase reporter activity is, setting by setting: (compound concentration: 200 nM) inactive: -1.13; (compound concentration: 10 uM) inactive: 1.81.
As for `CCN(CC)CCNC(=O)c1cc(Cl)c(N)cc1OC` [metoclopramide, Diffucap], the TEAD-luciferase reporter activity (compound concentration: 2 uM) is inactive: 2.29.
